This is one part of the list. Repeats are few or missing, and single values can be far off.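 Imaging used 1,536-well plates; nuclei positive for cleaved PARP by antibody were divided by total DNA-stained nuclei to yield the apoptosis fraction. Doses for screening kept most cells viable, and cell lines differ markedly in resting and induced cleaved-PARP levels.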
These compounds were tested on WM115 (assay: cleaved PARP positive nuclei fraction relative to DMSO control; melanoma cells; higher = more apoptosis). Details: library dose: low library concentration; 72 h.

| Structure (SMILES) | cleaved PARP positive nuclei fraction [%] |
| --- | --- |
| CO[C@H]1C[C@@H]2CC[C@@H](C)[C@@](O)(O2)C(=O)C(=O)N2CCCC[C@H]2C(=O)O[C@H]([C@H](C)C[C@@H]2CC[C@@H](OCCO)[C@H](OC)C2)CC(=O)[C@H](C)/C=C(\C)[C@@H](O)[C@@H](OC)C(=O)[C@H](C)C[C@H](C)/C=C/C=C/C=C/1C [everolimus] + CO[C@@H]1[C@H](N(C)C(=O)c2ccccc2)C[C@H]2O[C@]1(C)n1c3ccccc3c3c4c(c5c6ccccc6n2c5c31)C(=O)NC4 [Midostaurin] (first compound 0.02 µM, partner dose 0.08 µM) | 556 |
| CO[C@H]1C[C@@H]2CC[C@@H](C)[C@@](O)(O2)C(=O)C(=O)N2CCCC[C@H]2C(=O)O[C@H]([C@H](C)C[C@@H]2CC[C@@H](OCCO)[C@H](OC)C2)CC(=O)[C@H](C)/C=C(\C)[C@@H](O)[C@@H](OC)C(=O)[C@H](C)C[C@H](C)/C=C/C=C/C=C/1C [everolimus] + CCN(CC)CCCCNc1ncc2cc(-c3cc(OC)cc(OC)c3)c(NC(=O)NC(C)(C)C)nc2n1 [PD173074] (first compound 0.02 µM, partner dose 0.1 µM) | 165 |
| CO[C@H]1C[C@@H]2CC[C@@H](C)[C@@](O)(O2)C(=O)C(=O)N2CCCC[C@H]2C(=O)O[C@H]([C@H](C)C[C@@H]2CC[C@@H](OCCO)[C@H](OC)C2)CC(=O)[C@H](C)/C=C(\C)[C@@H](O)[C@@H](OC)C(=O)[C@H](C)C[C@H](C)/C=C/C=C/C=C/1C [everolimus] + Cc1cc(N2CCOCC2)cc2[nH]c(-c3c(NC[C@@H](O)c4cccc(Cl)c4)cc[nH]c3=O)nc12 [BMS536924] (first compound 0.02 µM, partner dose 0.2 µM) | 294 |
| CO[C@H]1C[C@@H]2CC[C@@H](C)[C@@](O)(O2)C(=O)C(=O)N2CCCC[C@H]2C(=O)O[C@H]([C@H](C)C[C@@H]2CC[C@@H](OCCO)[C@H](OC)C2)CC(=O)[C@H](C)/C=C(\C)[C@@H](O)[C@@H](OC)C(=O)[C@H](C)C[C@H](C)/C=C/C=C/C=C/1C [everolimus] + Cn1cc(/C=C2\C(=O)Nc3cccnc32)c2ccccc21 [GW441756] (first compound 0.02 µM, partner dose 0.4 µM) | 157 |
| CO[C@H]1C[C@@H]2CC[C@@H](C)[C@@](O)(O2)C(=O)C(=O)N2CCCC[C@H]2C(=O)O[C@H]([C@H](C)C[C@@H]2CC[C@@H](OCCO)[C@H](OC)C2)CC(=O)[C@H](C)/C=C(\C)[C@@H](O)[C@@H](OC)C(=O)[C@H](C)C[C@H](C)/C=C/C=C/C=C/1C [everolimus] + Cn1c(Nc2ccc(C(F)(F)F)cc2)nc2cc(Oc3ccnc(-c4ncc(C(F)(F)F)[nH]4)c3)ccc21 [CHIR265] (first compound 0.02 µM, partner dose 0.08 µM) | 786 |
| CO[C@H]1C[C@@H]2CC[C@@H](C)[C@@](O)(O2)C(=O)C(=O)N2CCCC[C@H]2C(=O)O[C@H]([C@H](C)C[C@@H]2CC[C@@H](OCCO)[C@H](OC)C2)CC(=O)[C@H](C)/C=C(\C)[C@@H](O)[C@@H](OC)C(=O)[C@H](C)C[C@H](C)/C=C/C=C/C=C/1C [everolimus] + COc1cc2ncnc(Nc3ccc(Oc4ccccc4)cc3)c2cc1OC [SrcI1] (first compound 0.02 µM, partner dose 2 µM) | 155 |
| CO[C@H]1C[C@@H]2CC[C@@H](C)[C@@](O)(O2)C(=O)C(=O)N2CCCC[C@H]2C(=O)O[C@H]([C@H](C)C[C@@H]2CC[C@@H](OCCO)[C@H](OC)C2)CC(=O)[C@H](C)/C=C(\C)[C@@H](O)[C@@H](OC)C(=O)[C@H](C)C[C@H](C)/C=C/C=C/C=C/1C [everolimus] + CN(NC(=O)CC(=O)NN(C)C(=S)c1ccccc1)C(=S)c1ccccc1 [STA4783] (first compound 0.02 µM, partner dose 0.006 µM) | 821 |
| CO[C@H]1C[C@@H]2CC[C@@H](C)[C@@](O)(O2)C(=O)C(=O)N2CCCC[C@H]2C(=O)O[C@H]([C@H](C)C[C@@H]2CC[C@@H](OCCO)[C@H](OC)C2)CC(=O)[C@H](C)/C=C(\C)[C@@H](O)[C@@H](OC)C(=O)[C@H](C)C[C@H](C)/C=C/C=C/C=C/1C [everolimus] + CCCCCCCCCCCC1=C(O)C(=O)C=C(O)C1=O [Embelin] (first compound 0.02 µM, partner dose 1.2 µM) | 296 |
| CO[C@H]1C[C@@H]2CC[C@@H](C)[C@@](O)(O2)C(=O)C(=O)N2CCCC[C@H]2C(=O)O[C@H]([C@H](C)C[C@@H]2CC[C@@H](OCCO)[C@H](OC)C2)CC(=O)[C@H](C)/C=C(\C)[C@@H](O)[C@@H](OC)C(=O)[C@H](C)C[C@H](C)/C=C/C=C/C=C/1C [everolimus] + COC(=O)c1sccc1S(=O)(=O)Nc1ccc(Nc2ccccc2)cc1OC [GSK0660] (first compound 0.02 µM, partner dose 1 µM) | 61.4 |
| CO[C@H]1C[C@@H]2CC[C@@H](C)[C@@](O)(O2)C(=O)C(=O)N2CCCC[C@H]2C(=O)O[C@H]([C@H](C)C[C@@H]2CC[C@@H](OCCO)[C@H](OC)C2)CC(=O)[C@H](C)/C=C(\C)[C@@H](O)[C@@H](OC)C(=O)[C@H](C)C[C@H](C)/C=C/C=C/C=C/1C [everolimus] + C[C@@H]1CCN(C(=O)CC#N)C[C@@H]1N(C)c1ncnc2[nH]ccc12 [CP690550] (first compound 0.02 µM, partner dose 1 µM) | 180 |
| CO[C@H]1C[C@@H]2CC[C@@H](C)[C@@](O)(O2)C(=O)C(=O)N2CCCC[C@H]2C(=O)O[C@H]([C@H](C)C[C@@H]2CC[C@@H](OCCO)[C@H](OC)C2)CC(=O)[C@H](C)/C=C(\C)[C@@H](O)[C@@H](OC)C(=O)[C@H](C)C[C@H](C)/C=C/C=C/C=C/1C [everolimus] + Oc1cc(-c2nc(-c3ccccc3)[nH]c2-c2ccncc2)ccc1Cl [L779450] (first compound 0.02 µM, partner dose 0.2 µM) | 72 |
| CO[C@H]1C[C@@H]2CC[C@@H](C)[C@@](O)(O2)C(=O)C(=O)N2CCCC[C@H]2C(=O)O[C@H]([C@H](C)C[C@@H]2CC[C@@H](OCCO)[C@H](OC)C2)CC(=O)[C@H](C)/C=C(\C)[C@@H](O)[C@@H](OC)C(=O)[C@H](C)C[C@H](C)/C=C/C=C/C=C/1C [everolimus] + Cn1cncc1[C@@](N)(c1ccc(Cl)cc1)c1ccc2c(c1)c(-c1cccc(Cl)c1)cc(=O)n2C [tipifarnib] (first compound 0.02 µM, partner dose 0.01 µM) | 223 |
| CO[C@H]1C[C@@H]2CC[C@@H](C)[C@@](O)(O2)C(=O)C(=O)N2CCCC[C@H]2C(=O)O[C@H]([C@H](C)C[C@@H]2CC[C@@H](OCCO)[C@H](OC)C2)CC(=O)[C@H](C)/C=C(\C)[C@@H](O)[C@@H](OC)C(=O)[C@H](C)C[C@H](C)/C=C/C=C/C=C/1C [everolimus] + NCC(=O)Nc1ccc(-n2nc(C(F)(F)F)cc2-c2ccc3c(ccc4ccccc43)c2)cc1 [OSU03012] (first compound 0.02 µM, partner dose 1 µM) | 92.7 |
| CO[C@H]1C[C@@H]2CC[C@@H](C)[C@@](O)(O2)C(=O)C(=O)N2CCCC[C@H]2C(=O)O[C@H]([C@H](C)C[C@@H]2CC[C@@H](OCCO)[C@H](OC)C2)CC(=O)[C@H](C)/C=C(\C)[C@@H](O)[C@@H](OC)C(=O)[C@H](C)C[C@H](C)/C=C/C=C/C=C/1C [everolimus] + NC(=O)Nc1cc(-c2cccc(F)c2)sc1C(=O)N[C@H]1CCCNC1 [AZD7762] (first compound 0.02 µM, partner dose 0.02 µM) | 53.3 |
| CO[C@H]1C[C@@H]2CC[C@@H](C)[C@@](O)(O2)C(=O)C(=O)N2CCCC[C@H]2C(=O)O[C@H]([C@H](C)C[C@@H]2CC[C@@H](OCCO)[C@H](OC)C2)CC(=O)[C@H](C)/C=C(\C)[C@@H](O)[C@@H](OC)C(=O)[C@H](C)C[C@H](C)/C=C/C=C/C=C/1C [everolimus] + O=C(Nc1ccccc1)c1cc([N+](=O)[O-])ccc1Cl [GW9662] (first compound 0.02 µM, partner dose 2 µM) | 232 |
| CO[C@H]1C[C@@H]2CC[C@@H](C)[C@@](O)(O2)C(=O)C(=O)N2CCCC[C@H]2C(=O)O[C@H]([C@H](C)C[C@@H]2CC[C@@H](OCCO)[C@H](OC)C2)CC(=O)[C@H](C)/C=C(\C)[C@@H](O)[C@@H](OC)C(=O)[C@H](C)C[C@H](C)/C=C/C=C/C=C/1C [everolimus] + O=C1NC(=O)/C(=C/c2ccc(-c3ccc(F)cc3O)o2)S1 [AS252424] (first compound 0.02 µM, partner dose 1 µM) | 108 |
| O=C(O)[C@@H]1[O][Sb](=[O])([O][Sb]2(=[O])[O][C@H]([C@H](O)CO)[C@H](O)[C@H](C(=O)O)[O]2)[O][C@H]([C@H](O)CO)[C@@H]1O (stereo partly drawn) [stibogluconate] + Clc1ccc(Nc2nnc(Cc3ccncc3)c3ccccc23)cc1 [vatalanib] (first compound 2 µM, partner dose 2 µM) | 82.3 |
| CO[C@H]1C[C@@H]2CC[C@@H](C)[C@@](O)(O2)C(=O)C(=O)N2CCCC[C@H]2C(=O)O[C@H]([C@H](C)C[C@@H]2CC[C@@H](OCCO)[C@H](OC)C2)CC(=O)[C@H](C)/C=C(\C)[C@@H](O)[C@@H](OC)C(=O)[C@H](C)C[C@H](C)/C=C/C=C/C=C/1C [everolimus] + O=C(CCCCCCC(=O)Nc1ccccc1)NO [vorinostat] (first compound 0.02 µM, partner dose 0.08 µM) | 163 |

Already shown: an excerpt of the list.

| Structure (SMILES) | cleaved PARP positive nuclei fraction [%] |
| --- | --- |
| CO[C@H]1C[C@@H]2CC[C@@H](C)[C@@](O)(O2)C(=O)C(=O)N2CCCC[C@H]2C(=O)O[C@H]([C@H](C)C[C@@H]2CC[C@@H](OCCO)[C@H](OC)C2)CC(=O)[C@H](C)/C=C(\C)[C@@H](O)[C@@H](OC)C(=O)[C@H](C)C[C@H](C)/C=C/C=C/C=C/1C [everolimus] + Oc1cc(-c2nc(-c3ccccc3)[nH]c2-c2ccncc2)ccc1Cl [L779450] (first compound 0.02 µM, partner dose 0.2 µM) | 72 |
| CO[C@H]1C[C@@H]2CC[C@@H](C)[C@@](O)(O2)C(=O)C(=O)N2CCCC[C@H]2C(=O)O[C@H]([C@H](C)C[C@@H]2CC[C@@H](OCCO)[C@H](OC)C2)CC(=O)[C@H](C)/C=C(\C)[C@@H](O)[C@@H](OC)C(=O)[C@H](C)C[C@H](C)/C=C/C=C/C=C/1C [everolimus] + Cn1cncc1[C@@](N)(c1ccc(Cl)cc1)c1ccc2c(c1)c(-c1cccc(Cl)c1)cc(=O)n2C [tipifarnib] (first compound 0.02 µM, partner dose 0.01 µM) | 223 |

Source: the supplement of paper PMC4604168 (melanoma cell lines)
